Test results published in PubChem BioAssay AID2685 (National Center for Advancing Translational Sciences (NCATS), 2010).
The whole screen tested about 320,000 compounds, of which about 2,100 (0.66%) were called active. The shares of active, inactive and inconclusive entries below differ from those in the screen. Calls follow the shape of the dose curve; as a rule, active = well fitted inhibition curve with a large enough effect in the signal ratio, with a control signal flat (not every such curve was filed as active); inconclusive = small, poorly fitted or top-dose-only effect, or effect the other way, or a change in a side signal; inactive = flat fitted curve, though single readings scatter; the % refers to the signal ratio. Potencies beside an inconclusive call are fits to weak or partial responses and may not hold up.
% is scaled to controls: 0 for no effect and ±100 for the full control effect; potency is read from the fitted curve at half-maximal effect.

Assay: qHTS Assay for Lipid Storage Modulators in Drosophila S3 Cells
Conditions: BODIPY lipid droplet fluorescence, 18-24 h, cells fed with added oleic acid; lipid storage change, negative = inhibition: at 46.1 µM (top of the series) unless noted
Summary of the method: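 Drosophila S3 cells loaded with oleic acid (400 uM, as added) and compounds at several concentrations; lipid droplets imaged by 488-nm laser-scanning cytometry, 500–530 nm intensity and object ratio to cell channel. Percent activity normalized to 20 uM Triacsin C.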
For `O=C(Nc1cc(Cl)ccc1-n1cncn1)c1ccc(Br)o1`, the lipid storage change, negative = inhibition was “inconclusive”. With `O=C(CC1SC(=Nc2cccc3ccccc23)N(Cc2ccccn2)C1=O)Nc1ccccc1Br` (centres undefined) the Potency was inconclusive: 29.1 µM [activator, single point]. With `NC(=O)c1cnn2c(C(F)(F)F)cc(-c3ccc(F)cc3)nc12` the lipid storage change, negative = inhibition was inconclusive: -36.5%. For `O=C(/C=C(\c1ccccc1)n1cncn1)c1ccccc1`, the lipid storage change, negative = inhibition was inconclusive: 22%. In the case of `Clc1ccc(Nc2nc(C3CC3)cs2)cc1`, the lipid storage change, negative = inhibition is reported as inconclusive: 10.5%. For `Cc1ccc2c(c1)C1CN(C)CCC1N2C(=O)c1ccccc1NS(=O)(=O)c1ccc(F)cc1` (centres undefined), the lipid storage change, negative = inhibition was inconclusive: 3.76%. In the case of `CCOc1nc(C)ccc1-c1noc(-c2ccccc2OC)n1`, the lipid storage change, negative = inhibition is reported as inconclusive: -5.94%. With `COc1ccc(-n2c(C)nc3c(cnn3-c3ccc(Cl)cc3)c2=O)cc1` the lipid storage change, negative = inhibition was inconclusive: 11.9%. For `CCOc1ccc(CCNC(=O)CN(C)S(=O)(=O)c2cccs2)cc1OCC`, the lipid storage change, negative = inhibition was inconclusive: -32.1%. For `O=C(COC(=O)/C=C/c1ccco1)Nc1ccc(F)cc1Cl`, the lipid storage change, negative = inhibition was inconclusive: 53.2%. With `CC(C)CCNC(=O)c1ccc(NC(=O)C2=CSCCO2)cc1` the lipid storage change, negative = inhibition was inconclusive: -68%. With `CCN(CC)C(=O)CSc1nc2c(sc(=S)n2CC)c(=O)n1-c1ccccc1` the lipid storage change, negative = inhibition was inconclusive: 28.5%. For `CCC1(C)Cc2ccccc2-c2[nH]c(=S)[nH]c(=O)c21` (centres undefined), the lipid storage change, negative = inhibition was inconclusive: 1.77%. With `COc1ccccc1CNC(=O)C1CCCN(c2cnccn2)C1` (centres undefined) the lipid storage change, negative = inhibition was inconclusive: -40.9%. In the case of `COc1ccc(OC)c(S(N)(=O)=O)c1`, the Potency is reported as inconclusive: 29.1 µM [falling, single point]. In the case of `NS(=O)(=O)c1ccc(NC(=O)COc2ccc(S(=O)(=O)N3CCCC3)cc2)cc1`, the Potency is reported as inconclusive: 8.2 µM [activator, partial curve]. With `Cc1cc(Cl)ccc1OCC(=O)N1CCN(c2ncccn2)CC1` the lipid storage change, negative = inhibition was inconclusive: 35.2%. With `COc1ccc(NC(=O)CC2C(=O)N(Cc3ccccc3)C(=S)N2CCN2CCOCC2)cc1` (centres undefined) the lipid storage change, negative = inhibition was inconclusive: -11.8%. In the case of `O=C(Cn1ccc(C(F)(F)F)n1)N/N=C/c1cccs1`, the lipid storage change, negative = inhibition is reported as inconclusive: -8.37%. In the case of `CC1(c2cccc(Br)c2)NC(=O)N(CC(=O)Nc2cccnc2Cl)C1=O` (centres undefined), the lipid storage change, negative = inhibition is reported as inconclusive: -49.8% [at 0.00295 µM]. In the case of `Cc1c(N(C)S(=O)(=O)c2cccc(C(=O)NC(C)C)c2)c(=O)n(-c2ccccc2)n1C`, the Potency is reported as inconclusive: 29.1 µM [falling, single point]. In the case of `COc1ccc(Cl)c2sc(N3CCN(C(=O)c4ccco4)CC3)nc12`, the lipid storage change, negative = inhibition is reported as inconclusive: 27.3%. With `N#Cc1ccc(COC(=O)c2cc(=O)c3ccccc3o2)cc1` the lipid storage change, negative = inhibition was inconclusive: -13.7%. With `Cc1ccc(S(=O)(=O)N2CCOCC2)cc1NC(=O)CNC1CCCC1` the Potency was inconclusive: 0.58 µM [cytotoxic, full curve]. For `CC(=O)c1ccc(NC(=O)COC(=O)C2CCN(S(=O)(=O)c3cccs3)CC2)cc1`, the lipid storage change, negative = inhibition was “inconclusive”. For `COc1cc2cc(CN(CCO)S(=O)(=O)c3ccccc3Cl)c(=O)[nH]c2cc1OC`, the lipid storage change, negative = inhibition was inconclusive: 1.42%. With `CSc1ccc(CNC(C)(C)CO)cc1` the Potency was inconclusive: 20.6 µM [activator, single point]. For `O=C(NCCCN1CCOCC1)c1cnn2c(-c3ccccc3)cc(-c3ccccc3)nc12`, the lipid storage change, negative = inhibition was inconclusive: 40.2%. For `CN(C1CCCCC1)S(=O)(=O)c1ccc(C(=O)O)cc1`, the lipid storage change, negative = inhibition was inconclusive: 5.54%. For `CCOC(=O)c1c(NC(=O)C2c3ccccc3Oc3ccccc32)sc(C(=O)N(CC)CC)c1C`, the lipid storage change, negative = inhibition was inconclusive: -52.6%. For `COc1ccc([C@@H]2[C@@H]3C(=O)N(C(C)(C)C)C(=O)[C@@H]3[C@]3(C)C(=O)N(c4ccccc4)C(=O)N23)cc1`, the lipid storage change, negative = inhibition was inconclusive: 29.9%. In the case of `CCN(CC)S(=O)(=O)c1ccc(NC(=O)c2cccnc2Cl)c(NC(=O)c2cccnc2Cl)c1`, the lipid storage change, negative = inhibition is reported as inconclusive: 34.1%. For `CN1C(=O)/C(=C\C=C2/CCCN2C)N(C)C1=S`, the lipid storage change, negative = inhibition was inconclusive: 26.5%. In the case of `COc1cc(NC(=O)c2c(Cl)cnn2C)c(OC)cc1Cl`, the lipid storage change, negative = inhibition is reported as inconclusive: 7.72%. With `O=c1c(/C=N/Nc2ccccc2)c(Sc2nnnn2-c2ccccc2)nc2ccccn12` the Potency was inconclusive: 0.259 µM [rising, partial curve, poor fit]. In the case of `CN(C)c1ccc(C2CC(=O)OC3=C2C(=O)CC(C)(C)C3)cc1` (centres undefined), the lipid storage change, negative = inhibition is reported as inconclusive: -28.7%. With `O=C1CCC/C(=N/NC(=O)c2ccc(CN3c4cccc5cccc(c45)S3(=O)=O)cc2)C1` the lipid storage change, negative = inhibition was inconclusive: -54.5%. For `CCCCn1c(NCCN(C)C)nc2c1c(=O)[nH]c(=O)n2C`, the Potency was inconclusive: 29.1 µM [falling, single point]. With `CCOC(=O)c1cnc2c([N+](=O)[O-])cnn2c1C` the lipid storage change, negative = inhibition was inconclusive: 35%. In the case of `Cc1ccc(NC(=O)CCN2CCN(C/C=C/c3ccccc3)CC2)cc1C`, the Potency is reported as inconclusive: 16.4 µM [falling, single point]. With `CC1(C)CC(=O)C2=C(C1)NC(Nc1nc3ccccc3o1)=NC21CCCCC1` the Potency was inconclusive: 2.91 µM [rising, single point]. In the case of `O=C(CN1C(=O)c2cccc3cccc1c23)NCC1CCCO1` (centres undefined), the lipid storage change, negative = inhibition is reported as inconclusive: 7.88%. In the case of `CCOc1ccc(/C=C(\C#N)C(=O)Nc2ccccn2)cc1`, the Potency is reported as inconclusive: 29.1 µM [falling, single point]. In the case of `CCN1CCN(CCCN(Cc2ccco2)C(=S)Nc2ccc(Cl)c(C)c2)CC1`, the lipid storage change, negative = inhibition is reported as inconclusive: -2.26%. In the case of `COc1ccccc1C(=O)N/N=C(\C)CC(=O)Nc1ccccn1`, the lipid storage change, negative = inhibition is reported as inconclusive: 55.8%. With `Cc1ccc(C(=O)NCCc2nnc3ccc(SCC(=O)N4CCCC4)nn23)cc1` the lipid storage change, negative = inhibition was inconclusive: -131%. In the case of `N=C1C(c2nc(-c3ccc(F)cc3)cs2)=C(O)CN1CCCN1CCOCC1`, the Potency is reported as inconclusive: 32.6 µM [falling, single point]. In the case of `NC(=O)c1ccc(CN2CCC(Cc3ccccc3)CC2)cc1`, the lipid storage change, negative = inhibition is reported as inconclusive: 99.2%. For `C=CCc1cccc2cc(C(=O)N3CCOCC3)c(=O)oc12`, the Potency was inconclusive: 6.51 µM [activator, single point].
